Laboratory results published in patent publication US20210332360.
A negative result means that nothing was seen under these conditions. For part of these data: Protein sequences can lack the tags named with them. For part of these data: Construct, isoform or probe ends are uncertain for at least one entry.

Assays:
Assay in all cases: binding assay
Settings in all cases: after the 5' primer region all dT replaced by 4 (alpha-D-mannose-triazole-modified C8-alkyne-dU); natural dC; lectin array 0.04-400 nM; only ConA gave strong signal; purified native protein; protein details: RayBiotech Lectin Array 40; label: particle-displayed, or 5'-biotinTEG; single-stranded DNA; variant of 3-1
[1] = biological target: T1, AIA (Artocarpus integrifolia) (UniProt P18670)
T1 sequence (looked up, limits assumed): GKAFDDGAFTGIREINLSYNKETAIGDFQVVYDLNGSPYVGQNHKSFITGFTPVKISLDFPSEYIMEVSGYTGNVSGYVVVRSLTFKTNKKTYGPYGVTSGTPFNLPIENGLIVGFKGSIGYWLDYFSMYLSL

[2] = biological target: T2, Aleuria aurantia lectin (AAL) (Aleuria aurantia) (UniProt P18891)
T2 sequence (looked up, limits assumed): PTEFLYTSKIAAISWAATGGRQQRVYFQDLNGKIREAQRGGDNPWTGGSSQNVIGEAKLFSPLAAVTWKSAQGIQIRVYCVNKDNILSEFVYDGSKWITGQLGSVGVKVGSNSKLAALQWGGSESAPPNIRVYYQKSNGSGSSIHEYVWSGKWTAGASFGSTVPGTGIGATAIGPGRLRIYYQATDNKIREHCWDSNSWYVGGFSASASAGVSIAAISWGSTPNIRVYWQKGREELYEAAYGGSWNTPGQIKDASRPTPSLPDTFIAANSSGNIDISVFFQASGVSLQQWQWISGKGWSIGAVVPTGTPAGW

[3] = test system: Allium sativum agglutinin (ASA) (Allium sativum)
[4] = biological target: T3, Bauhinia purpurea lectin (BPA) (Bauhinia purpurea) (UniProt P16030)
T3 sequence (looked up, limits assumed): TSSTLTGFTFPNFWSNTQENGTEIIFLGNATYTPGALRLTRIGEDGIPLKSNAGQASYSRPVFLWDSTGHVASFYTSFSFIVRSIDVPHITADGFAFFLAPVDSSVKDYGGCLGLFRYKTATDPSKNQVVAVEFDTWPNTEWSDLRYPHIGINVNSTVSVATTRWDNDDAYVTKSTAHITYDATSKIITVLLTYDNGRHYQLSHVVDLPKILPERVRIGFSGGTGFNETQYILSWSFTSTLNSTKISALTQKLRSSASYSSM

[5] = biological target: T4, Dolichos biflorus lectin (DBA) (Dolichos biflorus) (UniProt P05045)
T4 sequence (looked up, limits assumed): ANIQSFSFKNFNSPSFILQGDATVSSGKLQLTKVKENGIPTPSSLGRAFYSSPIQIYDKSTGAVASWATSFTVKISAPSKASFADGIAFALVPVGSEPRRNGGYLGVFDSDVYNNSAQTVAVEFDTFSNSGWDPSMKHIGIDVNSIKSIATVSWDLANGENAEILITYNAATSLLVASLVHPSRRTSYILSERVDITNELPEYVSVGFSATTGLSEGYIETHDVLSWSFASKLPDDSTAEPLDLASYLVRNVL

[6] = biological target: T5, Euonymus europaeus lectin (EEL) (Euonymus europaeus) (UniProt B3SV73)
T5 sequence (looked up, limits assumed): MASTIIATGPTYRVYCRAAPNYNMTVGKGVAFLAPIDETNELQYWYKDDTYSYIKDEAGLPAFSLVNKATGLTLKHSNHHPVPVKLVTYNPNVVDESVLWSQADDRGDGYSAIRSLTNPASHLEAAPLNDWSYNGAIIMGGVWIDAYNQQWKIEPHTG

[7] = biological target: T6, Galanthus nivalis lectin (GNA) (Galanthus nivalis) (UniProt P30617)
T6 sequence (looked up, limits assumed): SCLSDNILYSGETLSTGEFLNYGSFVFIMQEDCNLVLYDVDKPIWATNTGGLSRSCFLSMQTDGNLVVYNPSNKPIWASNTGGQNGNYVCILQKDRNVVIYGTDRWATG

[8] = biological target: T7, Lotus tetragonolobus lectin (LTL) (Lotus tetragonolobus) (UniProt P19664)
T7 sequence (looked up, limits assumed): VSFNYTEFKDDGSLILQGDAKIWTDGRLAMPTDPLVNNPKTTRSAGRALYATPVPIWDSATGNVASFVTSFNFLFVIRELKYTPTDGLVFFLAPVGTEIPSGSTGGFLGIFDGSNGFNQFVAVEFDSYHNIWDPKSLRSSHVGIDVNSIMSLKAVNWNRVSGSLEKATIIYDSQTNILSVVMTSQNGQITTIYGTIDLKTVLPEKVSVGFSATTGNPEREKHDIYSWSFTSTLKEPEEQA

[9] = biological target: T8, Peanut agglutinin (PNA) (Arachis hypogaea) (UniProt P02872)
T8 sequence (looked up, limits assumed): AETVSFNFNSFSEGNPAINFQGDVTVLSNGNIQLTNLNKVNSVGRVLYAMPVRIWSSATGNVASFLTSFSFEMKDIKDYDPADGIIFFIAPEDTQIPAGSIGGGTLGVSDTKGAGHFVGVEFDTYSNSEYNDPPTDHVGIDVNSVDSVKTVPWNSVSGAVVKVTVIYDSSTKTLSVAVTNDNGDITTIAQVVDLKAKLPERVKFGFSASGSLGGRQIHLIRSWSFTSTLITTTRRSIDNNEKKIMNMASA

[10] = biological target: T9, Solanum tuberosum lectin (STL) (Solanum tuberosum) (UniProt Q9S8M0)
T9 sequence (looked up, limits assumed): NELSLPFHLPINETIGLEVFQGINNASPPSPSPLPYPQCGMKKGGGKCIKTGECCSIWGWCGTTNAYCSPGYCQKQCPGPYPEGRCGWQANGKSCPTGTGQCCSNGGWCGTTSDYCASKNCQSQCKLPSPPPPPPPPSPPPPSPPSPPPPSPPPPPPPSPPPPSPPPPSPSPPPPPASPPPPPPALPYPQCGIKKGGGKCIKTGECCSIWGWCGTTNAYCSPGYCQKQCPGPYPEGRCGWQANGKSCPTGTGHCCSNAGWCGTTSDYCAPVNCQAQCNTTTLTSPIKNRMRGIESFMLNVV

[11] = biological target: T10, Ulex europaeus lectin II (UEA-II) (Ulex europaeus) (UniProt P22973)
T10 sequence (looked up, limits assumed): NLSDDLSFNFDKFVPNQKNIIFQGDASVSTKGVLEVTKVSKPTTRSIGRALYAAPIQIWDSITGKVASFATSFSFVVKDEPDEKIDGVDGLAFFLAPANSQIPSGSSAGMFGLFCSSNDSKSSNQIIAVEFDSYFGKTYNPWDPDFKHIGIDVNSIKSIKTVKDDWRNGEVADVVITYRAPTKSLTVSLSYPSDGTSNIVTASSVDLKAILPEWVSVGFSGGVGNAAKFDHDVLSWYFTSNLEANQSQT

[12] = biological target: T11, Wheat germ agglutinin (WGA) (Triticum vulgaris) (UniProt P10968)
T11 sequence (looked up, limits assumed): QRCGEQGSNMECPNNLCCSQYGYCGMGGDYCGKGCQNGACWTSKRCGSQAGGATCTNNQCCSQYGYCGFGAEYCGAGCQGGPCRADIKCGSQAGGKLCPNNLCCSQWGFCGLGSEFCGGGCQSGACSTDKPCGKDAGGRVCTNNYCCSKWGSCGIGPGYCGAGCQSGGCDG

Measured: binding result

GATCCCAGTCCGAAGTAATCGTTGCATCTGCACGACTGGTGAGCTTGAGTGGCAGAAGAACTTGTGCAAACGGCTATAGG [3-1m]
no binding: all assays above
